Results on two substances are retold here after article doi:10.1101/2024.06.02.596995.

No constants are given. Whether binding was seen depends on the method and setting. For part of these data: Binding can be weak; no strength is given. Tags and fused reporters may be left off the sequences shown. For part of these data: Binding seen in cells or lysates may run through a third protein.

The target in assay [1] is T1, Armitage WT-Flag (RNAi-resistant) (D. melanogaster) (UniProt Q6J5K9).
T1 sequence: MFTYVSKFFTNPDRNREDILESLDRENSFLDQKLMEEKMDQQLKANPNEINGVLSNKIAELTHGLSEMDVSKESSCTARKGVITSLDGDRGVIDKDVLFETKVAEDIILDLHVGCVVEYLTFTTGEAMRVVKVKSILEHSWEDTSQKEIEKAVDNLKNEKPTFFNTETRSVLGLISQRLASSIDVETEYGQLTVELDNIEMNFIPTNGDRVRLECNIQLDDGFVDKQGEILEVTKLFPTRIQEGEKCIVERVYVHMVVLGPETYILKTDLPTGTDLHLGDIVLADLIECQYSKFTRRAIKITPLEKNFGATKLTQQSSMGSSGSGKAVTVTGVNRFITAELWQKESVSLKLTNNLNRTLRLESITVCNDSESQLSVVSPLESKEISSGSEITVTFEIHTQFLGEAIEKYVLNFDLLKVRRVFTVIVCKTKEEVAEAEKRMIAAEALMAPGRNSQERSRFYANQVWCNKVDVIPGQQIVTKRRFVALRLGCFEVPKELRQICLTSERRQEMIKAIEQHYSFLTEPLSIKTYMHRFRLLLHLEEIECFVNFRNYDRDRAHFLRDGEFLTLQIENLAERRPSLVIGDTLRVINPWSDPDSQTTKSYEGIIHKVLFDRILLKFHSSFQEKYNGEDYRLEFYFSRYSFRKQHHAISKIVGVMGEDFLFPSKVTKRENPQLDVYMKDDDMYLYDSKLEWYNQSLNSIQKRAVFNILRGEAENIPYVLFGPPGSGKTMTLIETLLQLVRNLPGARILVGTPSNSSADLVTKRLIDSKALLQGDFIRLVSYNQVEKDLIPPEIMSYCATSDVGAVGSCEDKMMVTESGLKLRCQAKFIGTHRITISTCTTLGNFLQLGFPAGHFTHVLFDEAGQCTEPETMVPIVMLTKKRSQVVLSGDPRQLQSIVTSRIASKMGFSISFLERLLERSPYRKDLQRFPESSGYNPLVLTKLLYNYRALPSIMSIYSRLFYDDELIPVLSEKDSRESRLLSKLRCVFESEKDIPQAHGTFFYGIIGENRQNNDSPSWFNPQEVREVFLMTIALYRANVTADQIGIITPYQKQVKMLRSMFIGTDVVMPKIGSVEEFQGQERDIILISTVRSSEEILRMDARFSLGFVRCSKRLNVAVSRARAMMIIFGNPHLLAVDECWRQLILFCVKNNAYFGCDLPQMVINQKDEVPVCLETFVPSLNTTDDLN
As to the kind of experiment: pull-down.

The target in assay [2] is T2, Armitage ΔN34-Flag (D. melanogaster) (UniProt Q6J5K9).
T2 sequence: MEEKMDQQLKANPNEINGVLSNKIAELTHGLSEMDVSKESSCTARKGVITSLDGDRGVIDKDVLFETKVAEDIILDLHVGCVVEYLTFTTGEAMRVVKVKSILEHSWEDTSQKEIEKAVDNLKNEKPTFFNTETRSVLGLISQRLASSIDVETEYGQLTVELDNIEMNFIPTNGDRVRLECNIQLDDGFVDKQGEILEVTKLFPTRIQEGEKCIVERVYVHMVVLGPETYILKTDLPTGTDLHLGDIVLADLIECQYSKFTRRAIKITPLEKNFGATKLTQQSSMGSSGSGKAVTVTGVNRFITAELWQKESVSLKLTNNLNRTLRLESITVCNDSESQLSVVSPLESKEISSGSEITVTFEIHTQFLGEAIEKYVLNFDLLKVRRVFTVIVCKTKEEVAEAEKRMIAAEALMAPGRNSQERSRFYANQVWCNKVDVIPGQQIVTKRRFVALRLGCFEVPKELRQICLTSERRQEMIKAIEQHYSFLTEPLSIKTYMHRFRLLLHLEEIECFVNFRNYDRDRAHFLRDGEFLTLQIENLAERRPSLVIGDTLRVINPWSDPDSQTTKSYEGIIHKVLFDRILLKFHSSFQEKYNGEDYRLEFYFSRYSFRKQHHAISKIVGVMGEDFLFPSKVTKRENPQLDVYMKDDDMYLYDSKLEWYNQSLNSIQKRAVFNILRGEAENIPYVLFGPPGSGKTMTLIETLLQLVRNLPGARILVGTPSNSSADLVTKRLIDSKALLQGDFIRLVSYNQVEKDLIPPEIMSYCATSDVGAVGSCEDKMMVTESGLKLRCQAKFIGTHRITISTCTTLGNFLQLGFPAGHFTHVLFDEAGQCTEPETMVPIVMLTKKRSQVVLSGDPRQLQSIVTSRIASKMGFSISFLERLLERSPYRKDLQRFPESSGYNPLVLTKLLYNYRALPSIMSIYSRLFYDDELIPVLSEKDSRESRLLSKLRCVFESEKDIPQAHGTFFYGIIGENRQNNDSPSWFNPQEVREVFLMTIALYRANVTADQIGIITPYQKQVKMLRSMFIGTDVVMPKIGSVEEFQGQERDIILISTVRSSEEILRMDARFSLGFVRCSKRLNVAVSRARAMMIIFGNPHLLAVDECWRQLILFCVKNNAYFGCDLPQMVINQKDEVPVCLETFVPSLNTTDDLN
As to the kind of experiment: pull-down.

Assay [3] has as its target T1, Armitage WT-Flag (RNAi-resistant) (D. melanogaster). As to the kind of experiment: co-IP.

For the substance “Daed ΔTM-His (Drosophila (cDNA from OSC RNA)) (domain or fragment)”, the results for the binding result in assay [1] and in assay [2] were “binds” and “no binding”, respectively.

On to “Daedalus (Daed), endogenous in OSCs (D. melanogaster (endogenous in OSCs))”, for which the binding entry in assay [3] is “binds”.
